Measured values from PMC8305873, “Design and heterologous expression of a novel dimeric LL37 variant in Pichia pastoris” (Microbial Cell Factories, 2021).
Where a SMILES comes first, the peptide text is derived from it.

Test system: bacteria
Settings: the larger the value, the higher the cell selectivity
Method: The minimum inhibitory concentration (MIC) is a vital indicator for evaluating the antimicrobial activity of AMPs. The determination method refers to the improved method of Dong et al.. The strains to be tested were inoculated in Mueller Hinton broth (MHB) medium and cultured at 200 rpm and 37 °C until the logarithmic growth phase, and then the number of colonies was adjusted to approximately 10^5 CFU/mL. The 95 µL of bovine serum albumin (BSA) diluent (0.01% acetic acid and 0.2% BSA) and 5 µL of peptide (1.28 mM) were added to the first row of the 96-well plate, and 50 µL of BSA diluent was added to the other columns. After mixing in the first row, 50 µL of the mixture was aspirated and added to the second column and so on to the 11th row. After being cultured at 37 °C for 18–24 h, the minimum peptide concentration required to inhibit bacterial growth was the MIC value. All experiments were conducted at least three different times.
The safety of peptides is usually assessed by hemolytic activity. The collected blood of type B from healthy donor was centrifuged at 1000×g for 5 min to collect red blood cells. The red blood cells were then washed and resuspended in 10 mM PBS (pH 7.4). Fifty microliters of diluted red blood cells and an equal volume of peptide solution (2–128 µM) were incubated in a 96-well plate at 37 °C for 1 h. The red blood cell suspension treated with 0.1% Triton X-100 was used as a positive control (100% hemolysis), and untreated blood cell suspension was used as a negative control. The 96-well plate was centrifuged at 1000×g for 5 min at 4 °C, and then the supernatant was transferred to a new 96-well plate. The absorbance at OD570 was measured with a microplate reader.

Question: For `CC[C@H](C)[C@H](NC(=O)[C@H](CCCNC(=N)N)NC(=O)[C@H](CCC(N)=O)NC(=O)[C@@H](NC(=O)[C@@H](NC(=O)[C@H](CCCNC(=N)N)NC(=O)[C@H](CCCCN)NC(=O)[C@H](Cc1ccccc1)NC(=O)[C@H](CO)NC(=O)CNC(=O)CNC(=O)CNC(=O)CNC(=O)[C@H](CCCNC(=N)N)NC(=O)[C@H](CC(C)C)NC(=O)[C@H](Cc1ccccc1)NC(=O)[C@H](CCCNC(=N)N)NC(=O)[C@H](CCCCN)NC(=O)[C@@H](NC(=O)[C@H](CCCNC(=N)N)NC(=O)[C@H](CCC(N)=O)NC(=O)[C@@H](NC(=O)[C@@H](NC(=O)[C@H](CCCNC(=N)N)NC(=O)[C@H](CCCCN)NC(=O)[C@@H](N)Cc1ccccc1)[C@@H](C)CC)C(C)C)[C@@H](C)CC)[C@@H](C)CC)C(C)C)C(=O)N[C@@H](CCCCN)C(=O)N[C@@H](CCCNC(=N)N)C(=O)N[C@@H](Cc1ccccc1)C(=O)N[C@@H](CC(C)C)C(=O)N[C@@H](CCCNC(=N)N)C(=O)O` [LG] (H-FKRIVQRIKRFLRGGGGSFKRIVQRIKRFLR-OH), which “SI (Selection index = MHC/GM)” value is on record?
Answer: 32

Question: How did the “SI (Selection index = MHC/GM)” value turn out when `CC[C@H](C)[C@H](NC(=O)[C@H](CCCNC(=N)N)NC(=O)[C@H](CCC(N)=O)NC(=O)[C@@H](NC(=O)[C@@H](NC(=O)[C@H](CCCNC(=N)N)NC(=O)[C@H](CCCCN)NC(=O)[C@H](Cc1ccccc1)NC(=O)[C@H](CCCNC(=N)N)NC(=O)[C@H](CC(C)C)NC(=O)[C@H](Cc1ccccc1)NC(=O)[C@H](CCCNC(=N)N)NC(=O)[C@H](CCCCN)NC(=O)[C@@H](NC(=O)[C@H](CCCNC(=N)N)NC(=O)[C@H](CCC(N)=O)NC(=O)[C@@H](NC(=O)[C@@H](NC(=O)[C@H](CCCNC(=N)N)NC(=O)[C@H](CCCCN)NC(=O)[C@@H](N)Cc1ccccc1)[C@@H](C)CC)C(C)C)[C@@H](C)CC)[C@@H](C)CC)C(C)C)C(=O)N[C@@H](CCCCN)C(=O)N[C@@H](CCCNC(=N)N)C(=O)N[C@@H](Cc1ccccc1)C(=O)N[C@@H](CC(C)C)C(=O)N[C@@H](CCCNC(=N)N)C(=O)O` [(FR)2] (H-FKRIVQRIKRFLRFKRIVQRIKRFLR-OH) was run?
Answer: 9.87

Question: With `CC[C@H](C)[C@H](NC(=O)[C@H](CCCNC(=N)N)NC(=O)[C@H](CCC(N)=O)NC(=O)[C@@H](NC(=O)[C@@H](NC(=O)[C@H](CCCNC(=N)N)NC(=O)[C@H](CCCCN)NC(=O)[C@H](Cc1ccccc1)NC(=O)[C@H](C)NC(=O)[C@H](CCCCN)NC(=O)[C@H](C)NC(=O)[C@H](C)NC(=O)[C@H](C)NC(=O)[C@H](CCC(=O)O)NC(=O)[C@H](C)NC(=O)[C@H](CCCNC(=N)N)NC(=O)[C@H](CC(C)C)NC(=O)[C@H](Cc1ccccc1)NC(=O)[C@H](CCCNC(=N)N)NC(=O)[C@H](CCCCN)NC(=O)[C@@H](NC(=O)[C@H](CCCNC(=N)N)NC(=O)[C@H](CCC(N)=O)NC(=O)[C@@H](NC(=O)[C@@H](NC(=O)[C@H](CCCNC(=N)N)NC(=O)[C@H](CCCCN)NC(=O)[C@@H](N)Cc1ccccc1)[C@@H](C)CC)C(C)C)[C@@H](C)CC)[C@@H](C)CC)C(C)C)C(=O)N[C@@H](CCCCN)C(=O)N[C@@H](CCCNC(=N)N)C(=O)N[C@@H](Cc1ccccc1)C(=O)N[C@@H](CC(C)C)C(=O)N[C@@H](CCCNC(=N)N)C(=O)O` [LA] (H-FKRIVQRIKRFLRAEAAAKAFKRIVQRIKRFLR-OH) as the molecule, how does the “SI (Selection index = MHC/GM)” value read?
Answer: 4
